These results are taken from patent US20200254110A1 (priority 2017, published 2020).

This data set can be described thus: general procedure: peptide synthesis; pentafluorophenol ester. Conditions: conjugation step.

Consider DEG-SLIGRL, for which the conjugation yield is 39%.
In the case of Fam5/6-Lysine-DEG-SLIGRL, the conjugation yield is recorded as 26.2%.
